Among the data in PubChem BioAssay AID1347423 (Functional Genomics Laboratory (NCATS/FGL), 2020) are z-score values, retold here.

Screen size: about 52,000 sequences; about 210 (0.4%) were called active.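 How the source made its calls: active means gene whose silencing raises cell survival under the drug, median off-target-corrected z-score across its silencing RNAs 2 or more; inactive means the rest.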 The list shows a part of the results.

The nature of the test: Resistance to Poly (ADP-Ribose) Polymerase inhibitor: Gene Identification via Genome-wide siRNA Screen. As to conditions: mouse BRCA2 R2336H ES cells, olaparib, CellTiter-Glo viability; stronger effect = higher value. A digest of the protocol: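 Genome-wide siRNA screen (3 siRNAs/gene, 20 nM) in mouse ES cells carrying hypomorphic BRCA2 R2336H; olaparib 500 nM added 48 h post-transfection, CellTiter-Glo viability 72 h later. Normalized to plate-median negative control; MAD z-scores, gene median, seed-adjusted.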
Background: Cellular ATP, detected with luciferase, serves as a proxy for viable cell number.
Take GGUACAUGGCCAUUGUCCATT against Tacr2: the z-score is inactive: -0.154.
For GGAUUUGAAACAGAAAGAATT against Pde7a the value was inactive: 0.886.
With GGCCCAUUCAGAUCAUCCATT against V1rd6 the figure was inactive: -0.621.
Regarding GCAGGUACUAAGGUUCCUGTT against Apobec3, the z-score was inactive: 0.364.
With CCGACAGACUCACAUACUGTT against Trex1 the figure was inactive: -2.94; with GGUUUUUAACUCAAUGUAGTT against Midn, inactive: -0.372; with GGGAAGAGUGAGGAUACGGTT against Mrps34, inactive: 0.427.
With GGCACUGAAUUCAGUGGCUTT against Slc22a19, the z-score is inactive: -0.439.
With GGAUCAAGGCUGCUGUUCCTT against Pgk1, the z-score is inactive: 1.85.
As to GGGAAGAGUUGGAUCGAUCTT against Shkbp1, the z-score was inactive: 0.0688.
Take GGCAAAGCUGCUCUUUUCUTT against Dnttip1: the z-score was inactive: -0.362.
With GUACUGAGCAAGAUGCUGGTT against Sox18 the figure was inactive: -1.34; with GGGACAUGAGGAUUUGUCUTT against Six4, inactive: 0.534; with GGCUAAAAUAAGCAAUCUGTT against Optc, inactive: 0.143.
For “GGGCAGUAAAGCUUUCUUGTT against 1700029I08Rik” the value was inactive: 0.116.
For the sequence “GGAUGUGUGUGUCUCCUCATT against A030004J04Rik”, the z-score is inactive: -0.452.
For “GGACUCAACUUGAAGAAAATT against 0610008C08Rik” the value was inactive: -1.03; for “CGGUACAAGCUAGACCUCATT against 0610011F06Rik”, inactive: -0.562.
Consider CCUGCUUCUCUACAACCAUTT against Olfr1209, for which the z-score is inactive: -0.946.
For the sequence “GGGUAUCGUAUCAGAUCCCTT against 1810034K20Rik”, the z-score was inactive: 0.0323.
With CGAUUAUCCAGAGUGGAGCTT against Ankrd28 the figure was inactive: 0.0933.
“GGAUGACCAUGAAAGCUGUTT against C330002D13Rik”: the z-score is inactive: -1.27.
With “GGACCUUAAACAAGUACUATT against A030007D23Rik” the figure was inactive: 0.282.
Regarding GGAAGUUCAGAACUCAGUUTT against Prei3, the z-score is inactive: -0.0933.
On to “GCGAAGGUCCCAAAGAUGATT against 9630058J23Rik”, for which the z-score is inactive: -0.17.
GGUUCGAAAACUCAGCAAUTT against Drd3: the z-score is inactive: 1.03.
For the sequence GGAUGACAGUGACCAAAGGTT against D8Ertd82e, the z-score is inactive: -0.847.
Regarding GCGGUAUGGCAUGGUACAUTT against Oraov1, the z-score is inactive: -0.192.
For GGACAUCUAUCAGUUUCUUTT against Tnfrsf21, the z-score was inactive: 0.906.
With CCCAUUUAGGUUUUUCCUATT against Pde6d the figure was inactive: 0.811; with GGAAGAGAGCUGUCAGUGATT against Pth, inactive: -0.327.
With GGACAGUUGGCUUCCUUCATT against Adamts6, the z-score was inactive: -1.57.
With CCUCUUAGAUAGCACAUUATT against Epx the figure was inactive: -1.59; with CCAGGAUUAUCACAGUGUCTT against Commd8, inactive: -1.11; with GCUCUUUAGACCAGGACAGTT against Olfr103, inactive: -2.04.
For GUCACAGUACCCAAAAUGUTT against Olfr979 the value was inactive: 0.279; for GGAAAGCUUCUGAGUAAUGTT against Tfg, inactive: -0.527; for “GGCACACAAAAGAAUACCUTT against 5330439J01Rik”, inactive: 0.861.
For GCAUGCUACGAUCUGGACUTT against LOC224833, the z-score is inactive: -0.96.
Consider GCUUCUGAUUAACCUCCAGTT against Olfr1390, for which the z-score is inactive: -1.69.
With GGUAUUCUAAGAAGUCUUATT against Lmcd1 the figure was inactive: -0.137.
With GGCUUGAGACUUAAAACGGTT against Lztfl1 the figure was inactive: 0.767.
With GGGUGUGUAUCUUACUAGUTT against Olfr791 the figure was inactive: 0.0919.
As for GGAUGCUCUAACAGGAAGCTT against Slc26a1, the z-score was inactive: -0.432.
With GCACUUUCGAGUGGAUGAATT against Hoxd1 the figure was inactive: -1.63; with GGAUCAUUGACAGUGAAUATT against Blk, inactive: -0.585; with “GCGGAUUUACACCUUAUCUTT against 9230105K17Rik”, inactive: -0.701.
With GGUUUGUCAACAUUGCUGATT against Jmjd2a the figure was inactive: 1.06; with “GGUUAUCUCAAAACUCGACTT against 1700058C01Rik”, inactive: -0.367; with GGUGUCUGGUUCAUAAAGGTT against Lcn4, inactive: 0.994.
With “CGAUCUCCCAGGCAAUAACTT against 1700034O15Rik” the figure was inactive: -1.14.
As to GGGUUAAGAAAACUAGUGGTT against Nnat, the z-score was inactive: -0.435.
For GGACAUGAUAACAUGGAUATT against Ubr1 the value was inactive: 1.38; for GGCUCUGUAAAGUUCGAGGTT against Kcnip1, inactive: -0.379; for “GGUAUACAAUCCUUACCGUTT against 4732474A20Rik”, inactive: -0.161.
As for GUCACUCUUUUUUAUGGAATT against Olfr485, the z-score was inactive: 0.335.
GGGAUCCCUUCUGGAAAAGTT against Dmrtc2: the z-score is inactive: 1.01.
Consider GCGGAAAAAUUACUUUCUUTT against Tas2r107, for which the z-score was inactive: -0.775.
Consider GCCACAUGUCAAACAAGAUTT against Tacc1, for which the z-score was inactive: -0.247.
With GGCAAGCAGUCCAUAUUGUTT against Mapkap1 the figure was inactive: -0.824; with GGAUAUGAUCAACGAAGUGTT against Calm1, inactive: -0.0163.
With CCGUAAACCUAAAUUAGGATT against Ripk5 the figure was inactive: 0.289; with CCUAAAUCCUGCUAGGCGUTT against Cbln1, inactive: 0.0568; with GGAACGUACAGGAUAAUCUTT against BC031593, inactive: -0.0657.
With UCAGUCGCAUCUCCAAAAATT against Olfr340 the figure was inactive: -1.45.
For the sequence CGUAAGUCAGUGAUGCUAUTT against Srp19, the z-score is inactive: -0.616.
